# Measurements: the supplement of paper PMC6411743
# ± gives the standard deviation of the averaged measurements. The list shows a part of the results, in another mix than the full data.
# How the values were obtained:
# Assay in all cases: NP40-soluble protein abundance relative to vehicle (solubility fold change) (ratio); higher = more soluble protein in presence of AMP-PNP
# [1] = target: T1, UniProt Q5JRX3 and related entries
# T1 sequence (whole entry): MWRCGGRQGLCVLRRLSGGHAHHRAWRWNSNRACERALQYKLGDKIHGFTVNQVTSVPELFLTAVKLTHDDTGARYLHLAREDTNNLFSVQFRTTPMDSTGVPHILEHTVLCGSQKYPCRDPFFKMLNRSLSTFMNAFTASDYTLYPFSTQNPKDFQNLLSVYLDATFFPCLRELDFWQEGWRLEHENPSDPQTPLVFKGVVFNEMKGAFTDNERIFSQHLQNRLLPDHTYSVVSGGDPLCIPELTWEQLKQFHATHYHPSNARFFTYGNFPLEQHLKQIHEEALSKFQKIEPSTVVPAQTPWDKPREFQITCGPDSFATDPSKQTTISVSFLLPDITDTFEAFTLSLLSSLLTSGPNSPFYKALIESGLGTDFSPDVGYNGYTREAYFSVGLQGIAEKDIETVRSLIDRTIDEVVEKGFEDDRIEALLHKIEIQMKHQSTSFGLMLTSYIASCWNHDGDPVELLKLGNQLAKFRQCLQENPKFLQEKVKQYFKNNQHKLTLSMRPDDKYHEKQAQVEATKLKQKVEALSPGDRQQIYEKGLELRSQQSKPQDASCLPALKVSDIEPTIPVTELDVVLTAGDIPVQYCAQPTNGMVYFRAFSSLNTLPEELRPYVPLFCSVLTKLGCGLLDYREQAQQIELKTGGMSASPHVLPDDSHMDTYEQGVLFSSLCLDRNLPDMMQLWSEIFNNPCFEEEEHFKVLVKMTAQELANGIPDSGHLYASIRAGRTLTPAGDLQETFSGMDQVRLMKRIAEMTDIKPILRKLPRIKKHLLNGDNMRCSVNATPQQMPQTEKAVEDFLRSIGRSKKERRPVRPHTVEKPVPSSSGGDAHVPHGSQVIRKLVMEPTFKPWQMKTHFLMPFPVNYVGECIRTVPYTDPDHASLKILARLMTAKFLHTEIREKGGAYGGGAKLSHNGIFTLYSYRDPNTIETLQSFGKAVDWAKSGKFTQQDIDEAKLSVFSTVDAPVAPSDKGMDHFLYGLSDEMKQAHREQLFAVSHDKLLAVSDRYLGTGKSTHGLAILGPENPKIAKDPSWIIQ
# Summary of the method: (§1)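 Jurkat crude lysate prepared with a Dounce homogeniser was treated at eight concentrations spanning 0.1 to 10 mM, 10 min at room temperature then 3 min at 37 °C. Solubilisation with 0.8% NP40 and benzonase and ultracentrifugation preceded TMT labelling of the supernatant for LC-MS/MS. Fold change against the detergent-processed vehicle was determined per replicate from vsn-normalised intensities, across three independent experiments.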
# [2] = target: T2, UniProt Q5SGD2 and related entries
# T2 sequence (whole entry): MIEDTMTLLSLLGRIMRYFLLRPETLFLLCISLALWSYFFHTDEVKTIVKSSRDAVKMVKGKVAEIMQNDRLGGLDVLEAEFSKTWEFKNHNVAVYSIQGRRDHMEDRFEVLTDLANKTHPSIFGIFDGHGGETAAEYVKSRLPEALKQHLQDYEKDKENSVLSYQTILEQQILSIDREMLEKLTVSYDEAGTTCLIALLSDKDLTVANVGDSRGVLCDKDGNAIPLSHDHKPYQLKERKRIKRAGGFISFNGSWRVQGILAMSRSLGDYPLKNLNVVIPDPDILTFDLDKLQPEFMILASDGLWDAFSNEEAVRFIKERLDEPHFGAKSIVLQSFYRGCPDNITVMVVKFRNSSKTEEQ
# Summary of the method: as §1
# [3] = target: T3, UniProt Q5T1V6 and related entries
# T3 sequence (whole entry): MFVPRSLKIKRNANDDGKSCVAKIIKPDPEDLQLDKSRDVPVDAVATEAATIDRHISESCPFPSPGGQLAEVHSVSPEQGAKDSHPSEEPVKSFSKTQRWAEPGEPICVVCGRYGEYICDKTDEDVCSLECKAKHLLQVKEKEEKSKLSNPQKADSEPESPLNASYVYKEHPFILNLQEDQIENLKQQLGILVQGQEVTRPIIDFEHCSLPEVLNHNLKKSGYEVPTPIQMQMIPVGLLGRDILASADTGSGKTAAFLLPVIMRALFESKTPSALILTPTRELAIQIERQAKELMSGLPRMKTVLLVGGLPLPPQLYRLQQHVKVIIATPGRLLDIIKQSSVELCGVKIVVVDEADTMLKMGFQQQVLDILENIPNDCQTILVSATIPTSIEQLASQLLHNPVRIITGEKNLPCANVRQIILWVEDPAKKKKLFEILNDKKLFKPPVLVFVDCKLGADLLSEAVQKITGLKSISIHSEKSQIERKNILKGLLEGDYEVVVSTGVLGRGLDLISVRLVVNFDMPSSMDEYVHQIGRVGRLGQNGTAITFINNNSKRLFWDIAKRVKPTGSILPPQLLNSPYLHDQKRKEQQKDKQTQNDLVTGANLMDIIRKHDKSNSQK
# Summary of the method: as §1
# ZYX = target: T4, ZYX (UniProt Q15942)
# T4 sequence (whole entry): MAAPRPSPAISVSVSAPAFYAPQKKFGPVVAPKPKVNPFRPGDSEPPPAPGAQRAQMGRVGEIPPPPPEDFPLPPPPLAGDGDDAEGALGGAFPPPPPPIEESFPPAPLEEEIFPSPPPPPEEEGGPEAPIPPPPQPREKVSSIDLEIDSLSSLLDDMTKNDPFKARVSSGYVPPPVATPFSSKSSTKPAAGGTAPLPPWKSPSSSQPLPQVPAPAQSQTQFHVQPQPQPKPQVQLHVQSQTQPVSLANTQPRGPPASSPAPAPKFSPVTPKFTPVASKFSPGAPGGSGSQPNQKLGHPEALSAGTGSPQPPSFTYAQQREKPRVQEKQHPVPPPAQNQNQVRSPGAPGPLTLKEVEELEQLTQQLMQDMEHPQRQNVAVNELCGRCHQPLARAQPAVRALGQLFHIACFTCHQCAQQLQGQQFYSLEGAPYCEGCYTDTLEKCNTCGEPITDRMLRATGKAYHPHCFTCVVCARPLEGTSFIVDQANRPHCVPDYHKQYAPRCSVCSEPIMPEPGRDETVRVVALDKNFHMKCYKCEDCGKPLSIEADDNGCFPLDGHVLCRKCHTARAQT
# Summary of the method: as §1
compound,measurement,setting,value
Nc1ncnc2c1ncn2[C@@H]1O[C@H](COP(=O)(O)OP(=O)(O)NP(=O)(O)O)[C@@H](O)[C@H]1O [adenylyl imidodiphosphate],NP40-soluble protein abundance,[1]; concentration: 1mM,0.993 ± 0.013
same,NP40-soluble protein abundance,[1]; concentration: 2mM,0.957 ± 0.058
same,NP40-soluble protein abundance,[1]; concentration: 4mM,0.994 ± 0.014
same,NP40-soluble protein abundance,[1]; concentration: 6mM,0.983 ± 0.026
same,NP40-soluble protein abundance,[1]; concentration: 8mM,0.985 ± 0.024
same,NP40-soluble protein abundance,[1]; concentration: 10mM,0.966 ± 0.02
same,NP40-soluble protein abundance,[2]; concentration: 1mM,1.02 ± 0.029
same,NP40-soluble protein abundance,[2]; concentration: 2mM,1.03 ± 0.049
same,NP40-soluble protein abundance,[2]; concentration: 4mM,1 ± 0.019
same,NP40-soluble protein abundance,[2]; concentration: 6mM,1 ± 0.016
same,NP40-soluble protein abundance,[2]; concentration: 8mM,1.02 ± 0.06
same,NP40-soluble protein abundance,[2]; concentration: 10mM,1.006 ± 0.0075
same,NP40-soluble protein abundance,[3]; concentration: 1mM,1.03 ± 0.03
same,NP40-soluble protein abundance,[3]; concentration: 2mM,0.999 ± 0.021
same,NP40-soluble protein abundance,[3]; concentration: 4mM,1.02 ± 0.023
same,NP40-soluble protein abundance,[3]; concentration: 6mM,0.99 ± 0.019
same,NP40-soluble protein abundance,[3]; concentration: 8mM,1.01 ± 0.016
same,NP40-soluble protein abundance,[3]; concentration: 10mM,0.985 ± 0.021
same,NP40-soluble protein abundance,ZYX; concentration: 1mM,1.03 ± 0.031
same,NP40-soluble protein abundance,ZYX; concentration: 2mM,1.06 ± 0.034
same,NP40-soluble protein abundance,ZYX; concentration: 4mM,1.01 ± 0.059
same,NP40-soluble protein abundance,ZYX; concentration: 6mM,0.99 ± 0.025
same,NP40-soluble protein abundance,ZYX; concentration: 8mM,0.981 ± 0.047
same,NP40-soluble protein abundance,ZYX; concentration: 10mM,0.969 ± 0.058

# Another view of part of the listing above.
compound	measurement	setting	value
Nc1ncnc2c1ncn2[C@@H]1O[C@H](COP(=O)(O)OP(=O)(O)NP(=O)(O)O)[C@@H](O)[C@H]1O [adenylyl imidodiphosphate]	NP40-soluble protein abundance	[1]; concentration: 6mM	0.983 ± 0.026
same	NP40-soluble protein abundance	[2]; concentration: 1mM	1.02 ± 0.029
